Data as given in PubChem BioAssay AID743454 (Peter MacCallum Cancer Centre, 2014)

Test: 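Genes whose loss kills vorinostat-resistant colon cancer cells under vorinostat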 (primary screen)
Cells: human HCT116-VR colon cancer cells, selected for vorinostat resistance
Knock-down reagent: siRNA pool against human genes, 40 nM siRNA pool
Duration: vorinostat for 24 h, read-out about 72 h after transfection
Treatment: vorinostat at 2.5 µM final
Detection: 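Cell viability by CellTiter-Fluor and caspase 3/7 activity by luminescence, each scaled to mock wells per plate, duplicates averaged, then robust z-scored over all plates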
Scale: viability robust z-score: higher = more viable cells than screen typical; caspase robust z-score: higher = more caspase 3/7 activity than screen typical
Active means: 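a knock-down is a hit when classed RV1 or RV2 for lowered viability, or CA1 or CA2 for caspase activation; those lethal without drug were dropped; hits were retested singly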
Shown is a random part of about 18,000 deposited reagents. In the full data, 450 (2.5%) were called active. 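Single biological run; no consistent viability z cut-off exists, so the class columns, not z-scores, define the calls.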

Gene	PubChem SID	viability hit class	caspase hit class	viability robust z-score	caspase robust z-score	activity call
OCM2 (GeneID 4951)	SID135622278	no change	no change	0.14	3.04	inactive
FAM153B (GeneID 202134)	SID135625431	no change	no change	0.17	-0.54	inactive
KRT15 (GeneID 3866)	SID135622182	no change	no change	1.38	-0.8	inactive
SYCP2 (GeneID 10388)	SID134324302	no change	no change	-0.05	0.02	inactive
RNF7 (GeneID 9616)	SID135621268	no change	no change	1.39	1.26	inactive
GRIN3B (GeneID 116444)	SID152155337	no change	no change	-0.15	0.24	inactive
ZNF821 (GeneID 55565)	SID134324569	no change	no change	0.76	-0.72	inactive
CCDC88C (GeneID 440193)	SID135625311	no change	no change	0.34	0.91	inactive
CYP27A1 (GeneID 1593)	SID134313116	no change	no change	1.8	-0.97	inactive
ZFP91 (GeneID 80829)	SID152147619	no change	no change	-0.63	-0.38	inactive
HNRNPH3 (GeneID 3189)	SID134316712	no change	no change	-0.44	-0.77	inactive
CST8 (GeneID 10047)	SID134316327	no change	no change	1.16	-0.81	inactive
ZNF524 (GeneID 147807)	SID135621324	no change	no change	-0.2	-0.54	inactive
ATP1B4 (GeneID 23439)	SID134314334	no change	no change	-0.05	1.29	inactive
IGFBP2 (GeneID 3485)	SID152152542	no change	no change	1.19	1.81	inactive
CRTAP (GeneID 10491)	SID152151760	no change	no change	0.3	-0.12	inactive
PLA2G3 (GeneID 50487)	SID152150077	no change	no change	-0.96	-0.24	inactive
GKN2 (GeneID 200504)	SID152149009	no change	no change	0.62	0.16	inactive
ZNF18 (GeneID 7566)	SID152153209	no change	no change	1.91	0.16	inactive
SND1-IT1 (GeneID 27099)	SID135622411	no change	no change	0.88	-0.4	inactive
MAB21L3 (GeneID 126868)	SID134320814	no change	no change	-0.13	1.15	inactive
LOC90462 (retired record) (GeneID 90462)	SID152149874	no change	no change	-1.34	-0.84	inactive
FBXO48 (GeneID 554251)	SID152149609	no change	no change	-1.68	3.08	inactive
MAGEB3 (GeneID 4114)	SID134315672	no change	no change	0.64	-0.43	inactive
PHOSPHO1 (GeneID 162466)	SID134322280	no change	no change	0.11	-0.87	inactive
CUTA (GeneID 51596)	SID152153173	no change	no change	0.54	-0.56	inactive
TRIT1 (GeneID 54802)	SID134322667	no change	no change	0.33	1.29	inactive
MAGEA8 (GeneID 4107)	SID134321305	no change	no change	0.1	0.19	inactive
LAMP1 (GeneID 3916)	SID135622540	no change	no change	-1	0.54	inactive
GPR15 (GeneID 2838)	SID134310992	no change	no change	-0.84	1.73	inactive
MGAT4D (GeneID 152586)	SID135624431	no change	no change	0.76	-0.38	inactive
TP53TG5 (GeneID 27296)	SID134323955	no change	no change	0.36	0.64	inactive
RPAIN (GeneID 84268)	SID135622825	no change	no change	-0.44	-1.02	inactive
ADAM9 (GeneID 8754)	SID152149914	no change	no change	0.89	-0.98	inactive
PRPF38B (GeneID 55119)	SID134324750	no change	no change	0.57	-0.49	inactive
P2RY1 (GeneID 5028)	SID134311128	no change	no change	-0.24	-0.68	inactive
TMEM140 (GeneID 55281)	SID135624074	no change	no change	1.1	-0.82	inactive
MEOX1 (GeneID 4222)	SID135622215	no change	no change	0.5	1.34	inactive
PSAT1 (GeneID 29968)	SID135621943	no change	no change	-0.09	-0.92	inactive
GLOD5 (GeneID 392465)	SID135624999	no change	no change	1.14	-0.14	inactive
KRTAP20-2 (GeneID 337976)	SID134322458	no change	no change	-1.02	2.24	inactive
CCNP (GeneID 79935)	SID134318642	no change	no change	-0.77	0.62	inactive
EOGT (GeneID 285203)	SID134325649	no change	no change	-0.28	0.03	inactive
C8orf82 (GeneID 414919)	SID135625122	no change	no change	1.14	-0.55	inactive
IQCF3 (GeneID 401067)	SID152150149	no change	no change	-0.39	-0.45	inactive
POLG2 (GeneID 11232)	SID152153093	no change	no change	-1.62	-0.4	inactive
HSDL1 (GeneID 83693)	SID134310634	no change	no change	1.04	0.76	inactive
MED7 (GeneID 9443)	SID152156171	no change	no change	-0.88	1.65	inactive
DCAF12L1 (GeneID 139170)	SID152147289	no change	no change	0.81	0.19	inactive
HIP1R (GeneID 9026)	SID134326729	no change	no change	-1.62	1.15	inactive
USP46 (GeneID 64854)	SID135621141	no change	no change	0.31	-0.72	inactive
RPUSD3 (GeneID 285367)	SID152155487	no change	no change	0.2	-0.96	inactive
TM7SF2 (GeneID 7108)	SID152154890	no change	no change	-0.1	-0.28	inactive
ATP13A2 (GeneID 23400)	SID152153270	no change	no change	0.72	-0.15	inactive
KNTC1 (GeneID 9735)	SID134311991	no change	no change	0.72	-0.06	inactive
UTF1 (GeneID 8433)	SID152148226	no change	no change	-0.15	-0.92	inactive
VWA5B1 (GeneID 127731)	SID135623055	no change	no change	0.58	0.42	inactive

Not a retest: 7 of the entries above.
Gene	PubChem SID	viability hit class	caspase hit class	viability robust z-score	caspase robust z-score	activity call
CUTA (GeneID 51596)	SID152153173	no change	no change	0.54	-0.56	inactive
TRIT1 (GeneID 54802)	SID134322667	no change	no change	0.33	1.29	inactive
MAGEA8 (GeneID 4107)	SID134321305	no change	no change	0.1	0.19	inactive
LAMP1 (GeneID 3916)	SID135622540	no change	no change	-1	0.54	inactive
GPR15 (GeneID 2838)	SID134310992	no change	no change	-0.84	1.73	inactive
MGAT4D (GeneID 152586)	SID135624431	no change	no change	0.76	-0.38	inactive
TP53TG5 (GeneID 27296)	SID134323955	no change	no change	0.36	0.64	inactive
